Results are given in words; binding and its absence hold for the method and conditions named. Some entries that bind do so weakly or less than the wild type. Sequences can lack the tags named with a protein.

The target of the assay is full-length recombinant human SLFN14 (residues 1–912), C-terminally Flag-tagged (human) (UniProt P0C7P3). Description: cryo-EM structure; SLFN14 0.6 mg/mL with and without brewer's yeast tRNA (1:1 molar ratio) in 20 mM Tris pH 7.4, 150 mM NaCl, 1 mM MgCl2, 1 mM TCEP; three datasets merged; RNA bound in the cleft; both purified.

B1: full-length recombinant human SLFN14 (residues 1–912), C-terminally Flag-tagged (enzyme, UniProt P0C7P3 1-912, looked up)
chain: MESLKTDTEMPYPEVIVDVGRVIFGEENRKKMTNSCLKRSENSRIIRAICALLNSGGGVIKAEIDDKTYSYQCHGLGQDLETSFQKLLPSGSQKYLDYMQQGHNLLIFVKSWSPDVFSLPLRICSLRSNLYRRDVTSAINLSASSALELLREKGFRAQRGRPRVKKLHPQQVLNRCIQEEEDMRILASEFFKKDKLMYKEKLNFTESTHVEFKRFTTKKVIPRIKEMLPHYVSAFANTQGGYVLIGVDDKSKEVVGCKWEKVNPDLLKKEIENCIEKLPTFHFCCEKPKVNFTTKILNVYQKDVLDGYVCVIQVEPFCCVVFAEAPDSWIMKDNSVTRLTAEQWVVMMLDTQSAPPSLVTDYNSCLISSASSARKSPGYPIKVHKFKEALQRHLFPVTQEEVQFKPESLCKKLFSDHKELEGLMKTLIHPCSQGIVIFSRSWAGDVGFRKEQNVLCDALLIAVNSPVVLYTILIDPNWPGGLEYARNTAHQLKQKLQTVGGYTGKVCIIPRLIHLSSTQSRPGEIPLRYPRSYRLADEEEMEDLLQALVVVSLSSRSLLSDQMGCEFFNLLIMEQSQLLSESLQKTRELFIYCFPGVRKTALAIKIMEKIKDLFHCKPKEILYVCESDSLKDFVTQQTTCQAVTRKTFMQGEFLKIKHIVMDETENFCSKYGNWYMKAKNITHPKAKGTGSENLHHGILWLFLDPFQIHHADVNGLPPPSAQFPRKTITSGIHCALEIAKVMKEEMKRIKENPPSNMSPDTLALFSETAYEEATCAQALPGVCETKTNLTTEQIANYVARKCHSLFQCGYLPKDIAILCRRGEDRGRYRLALLKAMELIETHRPSEVVFSPATGVWGSHIVLDSIQQFSGLERTVVFGLSPECDQSEEFHKLCFASRAIKHLYLLYEKRAAY
notes: human SLFN14, full length, residues 1-912; The sample keeps co-purified cellular nucleic acid, and the structure has RNA in the cleft; also called SLFN14 wild-type (WT); Schlafen 14; not shown: Flag, C-terminal, kept
Take B1: the binding entry was “binds”.

The record behind these values is PMC12215978, “CryoEM structure of the SLFN14 endoribonuclease reveals insight into RNA binding and cleavage” (Nature Communications, 2025).
